At least one read-out could not be matched to a standard name with certainty.
Test: Solubility of BIRB 796 versus ionic strength of aqueous solutions
Format: physicochemical

Cc1ccc(-n2nc(C(C)(C)C)cc2NC(=O)Nc2ccc(OCCN3CCOCC3)c3ccccc23)cc1 [BIRB 796, 1-(5-tert-butyl-2-p-tolyl-2H-pyrazol-3-yl)-3-[4-(2-morpholin-4-yl-ethoxy)-naphthalen-1-yl]-urea]
solubility as ionic strength increases (pH 2, HCl/KCl aqueous solution and aqueous phosphate solution, FIG. 1): decreases
solubility as ionic strength increases (phosphate buffer pH 7.4, FIG. 2): decreases nearly linearly
